From patent US20230095558A1, “IMMUNE CHECKPOINT TIM3-TARGETING BINDING PEPTIDE AND APPLICATION THEREOF” (Sparx Biotech (Jiangsu) Co., Ltd., priority 2020, published 2023) come the findings set out here.

The target of test [1] is TIM3 protein (cat #CHI-MF-210T3-0050, Chimerigen). The test is described as follows: SPR, TIM3 protein immobilised on the sensor chip.
Test [2] shares this target. The test can be described thus: SPR, TIM3 sensor chip.

No constants are given. Whether binding was seen depends on the method and setting. A result given as binding can be weak or reduced; the word gives no strength.

As for GLIPLTTMHIGK [P26-12-peptide (targeting TIM3)], the binding result in test [1] and in test [2] was “binds” each time.
